Assay results reported in PMC5762300.

The chains behind the UniProt entries cited, without tags or fusion partners. Where a name states a change or a piece, a line headed by the entry shows the natural chain unless it says otherwise.
UniProt Q13905: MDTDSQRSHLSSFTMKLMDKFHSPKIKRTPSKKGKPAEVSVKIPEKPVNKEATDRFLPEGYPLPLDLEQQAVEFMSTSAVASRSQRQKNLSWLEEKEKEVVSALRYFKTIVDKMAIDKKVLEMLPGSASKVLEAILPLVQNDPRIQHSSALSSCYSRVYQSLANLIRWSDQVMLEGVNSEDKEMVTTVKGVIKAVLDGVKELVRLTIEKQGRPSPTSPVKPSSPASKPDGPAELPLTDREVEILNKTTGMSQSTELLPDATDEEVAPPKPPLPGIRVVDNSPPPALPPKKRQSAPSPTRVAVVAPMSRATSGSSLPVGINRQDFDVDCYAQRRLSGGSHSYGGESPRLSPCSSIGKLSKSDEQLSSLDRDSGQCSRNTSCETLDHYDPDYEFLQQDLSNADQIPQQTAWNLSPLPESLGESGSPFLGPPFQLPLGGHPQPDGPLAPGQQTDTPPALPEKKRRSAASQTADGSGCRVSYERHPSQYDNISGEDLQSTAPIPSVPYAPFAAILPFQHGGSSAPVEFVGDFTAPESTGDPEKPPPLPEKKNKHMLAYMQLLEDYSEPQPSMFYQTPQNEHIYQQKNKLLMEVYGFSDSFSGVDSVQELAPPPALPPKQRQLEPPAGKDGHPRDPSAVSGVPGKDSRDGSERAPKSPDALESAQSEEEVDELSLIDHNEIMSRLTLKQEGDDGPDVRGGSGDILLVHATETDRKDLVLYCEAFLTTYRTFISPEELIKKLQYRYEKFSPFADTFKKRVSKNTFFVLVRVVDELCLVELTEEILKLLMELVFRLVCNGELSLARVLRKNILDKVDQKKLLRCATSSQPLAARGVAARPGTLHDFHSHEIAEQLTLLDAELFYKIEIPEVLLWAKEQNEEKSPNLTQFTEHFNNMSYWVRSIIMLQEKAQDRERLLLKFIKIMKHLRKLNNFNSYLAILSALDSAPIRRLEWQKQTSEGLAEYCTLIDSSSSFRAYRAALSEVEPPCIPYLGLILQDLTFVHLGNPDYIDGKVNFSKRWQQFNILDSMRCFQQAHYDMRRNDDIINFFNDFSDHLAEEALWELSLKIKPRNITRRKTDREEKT
UniProt P51809: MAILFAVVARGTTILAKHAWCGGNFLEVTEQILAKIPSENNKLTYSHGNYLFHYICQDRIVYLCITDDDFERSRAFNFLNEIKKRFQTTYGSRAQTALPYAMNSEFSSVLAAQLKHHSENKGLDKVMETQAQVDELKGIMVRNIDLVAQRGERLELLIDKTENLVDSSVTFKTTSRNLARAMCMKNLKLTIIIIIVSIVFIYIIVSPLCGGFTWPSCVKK

Molecular target: C3G∆Cat (pLTR2C3G∆Cat construct) (human) (UniProt Q13905)
Assay: co-IP; HEK293T cells co-transfected with pLTR2C3G∆Cat and CFP-VAMP-7 fusion proteins; immunoprecipitated with anti-C3G antibodies; VAMP-7 detected with anti-GFP

Substance | binding
CFP-VAMP7-cyto, VAMP-7 cytosolic domain (aminoacids 1-188) (from UniProt P51809 1-188) (domain or fragment) | binds
CFP-VAMP7-CT, C-terminal (SNARE) domain of VAMP-7 (aminoacids 121-188) (from UniProt P51809 121-188) (domain or fragment) | binds
CFP-VAMP7-NT, N-terminal (longin) domain of VAMP-7 (aminoacids 1-120) (from UniProt P51809 1-120) (domain or fragment) | binds

These are yes or no findings as the source states them, for the method shown. In cells and extracts the contact can be indirect. Binding calls can cover weak binding; strength is not graded here.
